# Reference: patent US20260183437A1, “VHH ANTIBODY CONJUGATES WITH HETEROARYL CHELATORS” (ABDERA THERAPEUTICS INC., priority 2022, published 2026)
# Test system: double stranded DNA
# Test: Polyreactivity ELISA
# Format: binding
# Conditions: 10 μg/mL VHH-Fc; signal normalized to non-coated well
row,Substance,"Polyreactivity Assay Score, dsDNA"
1,"H107: anti-HER2 VHH-Fc, FcRn mutant H310A [Compound H107]",1.678
2,"H106: anti-HER2 VHH-Fc, FcRn mutant S254A [Compound H106]",1.446
3,"H101: anti-HER2 VHH-Fc (2RS15d VHH, human IgG1 Fc); FcRn wt, Fc effector wt [Compound H101]",1.406
4,"H108: anti-HER2 VHH-Fc, FcRn mutant H435Q [Compound H108]",1.663
5,"H109: anti-HER2 VHH-Fc, FcRn mutant Y463A (as printed) [Compound H109]",1.579
